Values from PubChem BioAssay AID743454 (Peter MacCallum Cancer Centre, 2014).
Assay: 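Genes whose loss kills vorinostat-resistant colon cancer cells under vorinostat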 (primary screen). Cell system: human HCT116-VR colon cancer cells, selected for vorinostat resistance. Reagents: siRNA pool against human genes, 40 nM siRNA pool. Time to read-out: vorinostat for 24 h, read-out about 72 h after transfection. Treatment: vorinostat at 2.5 µM final. Measurement: 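Cell viability by CellTiter-Fluor and caspase 3/7 activity by luminescence, each scaled to mock wells per plate, duplicates averaged, then robust z-scored over all plates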. Scale: viability robust z-score: higher = more viable cells than screen typical; caspase robust z-score: higher = more caspase 3/7 activity than screen typical. Active means: 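Hits are knock-downs in viability class RV1/RV2 or caspase class CA1/CA2, excluding ones that killed cells in the no-drug cell-count arm; hits then retested with single siRNAs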.
In all, the deposit lists about 18,000 reagents; this is a random part of them. 450 of them (2.5%) were called active. 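Single biological run; no consistent viability z cut-off exists, so the class columns, not z-scores, define the calls.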 Unmarked entries are inactive.

gene | PubChem SID | viability hit class | caspase hit class | viability robust z-score | caspase robust z-score
BPY2C (GeneID 442868) | SID135625129 | no change | no change | -0.72 | 4.09
SULT1A4 (GeneID 445329) | SID135625362 | no change | no change | 0.95 | 1.23
CRABP2 (GeneID 1382) | SID134313260 | no change | no change | -0.48 | 0.08
FIZ1 (GeneID 84922) | SID152152078 | no change | no change | 0.8 | 4.36
NYNRIN (GeneID 57523) | SID152150299 | no change | no change | -1.61 | 2.91
ZNF273 (GeneID 10793) | SID152154058 | no change | no change | 0.58 | -0.64
LCE1E (GeneID 353135) | SID134322843 | no change | no change | -0.86 | -0.48
UCMA (GeneID 221044) | SID152147727 | no change | no change | 1.88 | 0.63
KDELR1 (GeneID 10945) | SID152154841 | no change | no change | 1.03 | -0.26
VWF (GeneID 7450) | SID152150380 | no change | no change | 0.32 | -0.7
CD44 (GeneID 960) | SID135621872 | no change | no change | 1.28 | 1.16
MAIP1 (GeneID 79568) | SID134318516 | no change | no change | -0.09 | 0.9
FKBP15 (GeneID 23307) | SID152147596 | no change | no change | -0.16 | 0.86
STK38L (GeneID 23012) | SID152156064 | no change | no change | -1.11 | 0.6
RASD1 (GeneID 51655) | SID134314441 | no change | no change | 0.18 | 0.08
MPP3 (GeneID 4356) | SID152152750 | no change | no change | -0.93 | 3.72

Laid out differently: entries from further up.
{"gene": "FIZ1 (GeneID 84922)", "PubChem SID": "SID152152078", "viability hit class": "no change", "caspase hit class": "no change", "viability robust z-score": 0.8, "caspase robust z-score": 4.36}
{"gene": "NYNRIN (GeneID 57523)", "PubChem SID": "SID152150299", "viability hit class": "no change", "caspase hit class": "no change", "viability robust z-score": -1.61, "caspase robust z-score": 2.91}

Next entries:
gene | PubChem SID | viability hit class | caspase hit class | viability robust z-score | caspase robust z-score
SCMH1 (GeneID 22955) | SID152153416 | no change | no change | 0.66 | 0.43
MYH1 (GeneID 4619) | SID152147967 | no change | no change | 0.7 | 0.83
SKIL (GeneID 6498) | SID134315035 | no change | no change | 1 | -1.09
AGXT2 (GeneID 64902) | SID134314526 | no change | no change | -1.02 | -0.59
WDR54 (GeneID 84058) | SID134322789 | no change | no change | -1.11 | -0.01
HORMAD1 (GeneID 84072) | SID152149445 | no change | no change | -0.3 | 0.75
PGR (GeneID 5241) | SID135620677 | no change | no change | -0.07 | -0.54
DAG1 (GeneID 1605) | SID152149869 | no change | no change | -0.1 | 0.3
RAB8A (GeneID 4218) | SID134310151 | no change | no change | -0.28 | 2.36
EPHB4 (GeneID 2050) | SID152156322 | no change | no change | -0.74 | 2.83
FAM184A (GeneID 79632) | SID152149783 | no change | no change | 0.88 | -0.42
CUL1 (GeneID 8454) | SID134310265 | no change | no change | 0.05 | 2.37
LRRC46 (GeneID 90506) | SID134319168 | no change | no change | -1.22 | -0.94
PLAAT3 (GeneID 11145) | SID152146917 | no change | no change | -1.28 | 0.03
CLU (GeneID 1191) | SID134323297 | no change | no change | 0.78 | 0.32
OR4K1 (GeneID 79544) | SID134329834 | no change | no change | -0.58 | -0.28
RBFA (GeneID 79863) | SID134318607 | no change | no change | -0.81 | 4.9
DRG2 (GeneID 1819) | SID134315607 | no change | no change | 0.08 | -0.69
HSF4 (GeneID 3299) | SID152152431 | no change | no change | -1.21 | 0.5
KRTAP17-1 (GeneID 83902) | SID134317743 | no change | no change | -0.88 | -0.25
TRIM29 (GeneID 23650) | SID152154560 | no change | no change | 1.24 | 0.77
IGSF6 (GeneID 10261) | SID152155127 | no change | no change | -0.15 | -0.65
OTX2 (GeneID 5015) | SID134313589 | no change | no change | 0.2 | -0.62
